# Primary screen of a compound library

Sequences of proteins named here, by UniProt entry; tags and fusion partners are left off.
UniProt E9BF75, entry or part of it: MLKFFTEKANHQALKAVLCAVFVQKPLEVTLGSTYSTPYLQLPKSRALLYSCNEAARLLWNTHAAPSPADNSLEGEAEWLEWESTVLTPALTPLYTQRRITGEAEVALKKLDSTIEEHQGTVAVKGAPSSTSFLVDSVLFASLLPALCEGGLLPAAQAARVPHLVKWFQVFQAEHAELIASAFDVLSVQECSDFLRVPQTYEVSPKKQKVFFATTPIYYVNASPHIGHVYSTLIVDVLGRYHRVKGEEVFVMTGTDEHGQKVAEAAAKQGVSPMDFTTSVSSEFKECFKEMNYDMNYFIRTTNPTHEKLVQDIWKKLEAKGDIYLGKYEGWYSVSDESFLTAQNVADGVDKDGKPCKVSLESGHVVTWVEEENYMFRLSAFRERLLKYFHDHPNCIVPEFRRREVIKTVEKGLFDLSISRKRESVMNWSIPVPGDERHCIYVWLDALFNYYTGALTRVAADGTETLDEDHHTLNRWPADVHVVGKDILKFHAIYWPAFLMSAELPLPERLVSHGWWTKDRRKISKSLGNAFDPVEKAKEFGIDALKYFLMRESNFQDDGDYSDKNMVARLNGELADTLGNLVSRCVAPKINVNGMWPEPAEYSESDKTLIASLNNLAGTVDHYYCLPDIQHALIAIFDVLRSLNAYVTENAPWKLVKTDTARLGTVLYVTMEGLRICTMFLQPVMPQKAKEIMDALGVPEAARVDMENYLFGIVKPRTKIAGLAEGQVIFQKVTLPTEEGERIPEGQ

All values are in %. How 0% and 100% were set is not recorded. Most values in the screen are low, and negative values occur. This is an unselected part of the compounds tested.

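Methionyl-tRNA synthetase (putative), Leishmania donovani (UniProt E9BF75). Primary screen of methionyl-tRNA synthetase; the read-out is not stated. The test concentration is not given. The values are filed as inhibition. Size under these conditions: about 68,000 compounds, about 24 of them at 50% or above in at least one test.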

{"structure": "Cc1cc(C(=O)NS(C)(=O)=O)c(C)n1-c1ccccc1", "inhibition": 18.87}
{"structure": "c1cncc(CN2CCC3(CC2)CC(c2cccnc2)CO3)c1", "stereo": "stereo not given", "inhibition": 6.599}
{"structure": "CC(C)c1nc(CN2CCN(C(=O)CC3CCCCC3)CC2)no1", "inhibition": 22.65}
{"structure": "O=C(CCn1cccn1)NCCOc1cccc(Cl)c1", "inhibition": 12.7}
{"structure": "Fc1cccnc1O[C@@H]1CN(Cc2ccco2)[C@@H]2CCCO[C@@H]21", "inhibition": 21.04}
{"structure": "Cc1ccc(CCC(=O)N2CCCC(c3cc(C(N)=O)[nH]n3)C2)cc1", "stereo": "stereo not given", "inhibition": 16.26}
{"structure": "CN(c1ncccc1CNS(=O)(=O)N1CCOCC1)C1CCCCC1", "inhibition": -1.375}
{"structure": "COCCn1cc(CC(=O)Nc2cc(C)n(C)n2)c2ccccc21", "inhibition": 18.87}
{"structure": "Cc1cc2nc(C(C)C)cc(N3CCC(N(C)C)C3)n2n1", "stereo": "stereo not given", "inhibition": 15.25}
{"structure": "CCN1CCC(CC(=O)N(C)C(C)c2cncs2)CC1", "stereo": "stereo not given", "inhibition": 3.876}
{"structure": "Oc1cc(C2CCCCN2Cc2ccsc2)nc(-c2ccncc2)n1", "stereo": "stereo not given", "inhibition": 15.43}
{"structure": "NC(=O)C1CCN(CC(=O)N(Cc2ccccc2)Cc2nccs2)CC1", "inhibition": 6.527}
{"structure": "CC(C)CCC(=O)N1CC[C@@H]2[C@H](CC1)N(S(C)(=O)=O)CCS2(=O)=O", "inhibition": 19.55}
{"structure": "Cc1ccsc1[C@@H]1CCN(C(=O)CCCn2cncn2)C[C@H]1O", "inhibition": -13.44}
{"structure": "Cc1ccc(CN2Cc3ccccc3O[C@]3(CC[C@H](CO)CC3)C2)s1", "inhibition": 9.605}
{"structure": "Cc1cnc(N2CCCC3(CCOCC3)C2)nc1", "inhibition": 14.11}
{"structure": "COCCn1cc(C(=O)N2CCCC2c2cc(C)on2)c2ccccc21", "stereo": "stereo not given", "inhibition": -4.945}
{"structure": "CC(NC(=O)NCCCN1CCCC1=O)c1ccc(Cl)s1", "stereo": "stereo not given", "inhibition": 9.669}
{"structure": "CCC(=O)N1CCN(C(=O)CCn2cccn2)CC1", "inhibition": 12.38}
{"structure": "CCC[C@H]1CN(CCS(C)(=O)=O)C[C@@H]1NC(=O)c1cc[nH]n1", "inhibition": 8.906}
{"structure": "COc1ccc(Br)cc1SCCC(N)=O", "inhibition": 13.47}
{"structure": "Cc1cnn(CC2CCCCN2C(=O)c2ccccc2-n2cccn2)c1", "stereo": "stereo not given", "inhibition": 17.66}
{"structure": "CCn1c(C2CCNCC2)nn(Cc2ccc(C(=O)NC)o2)c1=O", "inhibition": 12.69}
{"structure": "Cc1cc(C)cc(C(=O)N2CCCN(CC(N)=O)CC2)c1", "inhibition": 10.95}
{"structure": "O=C(NCc1ccco1)c1[nH]nc2c1CS(=O)(=O)CC2", "inhibition": 16.02}
{"structure": "CN(C)C[C@@H]1CCC[C@@H]2CN(c3nccc(C(F)(F)F)n3)C[C@@H]21", "inhibition": -0.5556}
{"structure": "Cc1nccc(N[C@H]2CN(C(=O)CN3CCOCC3)C[C@@H]2C(C)C)n1", "inhibition": 4.789}
{"structure": "CC(=O)NCCC(=O)NC(C)c1sc(-c2ccccc2F)nc1C", "stereo": "stereo not given", "inhibition": 13.18}
{"structure": "CN(C)c1cccc(C(=O)N2CCCSCC2CN2CCCC2)c1", "stereo": "stereo not given", "inhibition": 13.91}
{"structure": "COCCn1/c(=N/C(=O)C(C)C)sc2cc(Cl)ccc21", "inhibition": 3.727}
{"structure": "Cc1cnn(CCNCc2csc(COc3ccccc3)n2)c1", "inhibition": 18.94}
{"structure": "Cc1[nH]c(-c2ccccc2)nc1C(=O)N1CCC(O)(CO)CC1", "inhibition": 10.07}
{"structure": "CC1CCN(CC(=O)N(C)CCc2noc(C3CC3)n2)C1=O", "stereo": "stereo not given", "inhibition": 11.58}
{"structure": "COc1cnc(C2(O)CCN(C(=O)c3cccnc3)CC2)c(OC)n1", "inhibition": 14.04}
{"structure": "CC(C)CNC(=O)c1ccc(NC(=O)NC(C)C)cc1Cl", "inhibition": 12.64}
{"structure": "Cc1cccc(NC2CCN(C(=O)Nc3ccccn3)CC2)n1", "inhibition": 0.5556}
{"structure": "O=C(COc1ccc2c(c1)CCC2)N1CCOCC1c1ncon1", "stereo": "stereo not given", "inhibition": 13.73}
{"structure": "CS(=O)(=O)NCCNC(=O)c1ccc(OCc2ccccc2)nc1", "inhibition": 3.846}
{"structure": "N#Cc1cc(NC(=O)C2CC=CC2)ccc1N1CCC(O)CC1", "inhibition": 14.86}
{"structure": "CC(C)N1CCCC(CCCc2ccccn2)(C(=O)O)C1", "stereo": "stereo not given", "inhibition": 11.3}
{"structure": "CC1c2ncc(CNC(=O)C3CC3)n2CCN1Cc1cccnc1", "stereo": "stereo not given", "inhibition": -1.37}
{"structure": "Cc1cc(C)nc(Nc2nccnc2C2CCCN(C(C)C)C2)n1", "stereo": "stereo not given", "inhibition": 9.119}
{"structure": "CC1CN(C)c2ccccc2CN1C(=O)c1cc(C#N)cn1C", "stereo": "stereo not given", "inhibition": -5.415}
{"structure": "COc1ccc(S(=O)(=O)N2CCC(O)(CN(C)C)C2)cc1", "stereo": "stereo not given", "inhibition": 14.12}
{"structure": "O=C(NCCCO)c1nc(-c2ccc3cc[nH]c3c2)no1", "inhibition": 8.182}

For reference, 3 entries once more:

| structure | inhibition |
|---|---|
| `COCCn1cc(CC(=O)Nc2cc(C)n(C)n2)c2ccccc21` | 18.87% |
| `Cc1ccc(CCC(=O)N2CCCC(c3cc(C(N)=O)[nH]n3)C2)cc1` (stereo not given) | 16.26% |
| `CC(C)CCC(=O)N1CC[C@@H]2[C@H](CC1)N(S(C)(=O)=O)CCS2(=O)=O` | 19.55% |

The values are deposited in ChEMBL (CHEMBL3988442, “University of Dundee, Small-Polar-MMV Screening Library” (2021)).